The test system of the assay is expanded OPCs. The assay is described as follows: cells. The settings on record: Rattus norvegicus, 72 h. As for the experimental part: Having established a consistent assay for measuring OL differentiation in vitro, the next step was to utilize this assay to assess the ability of a wide array of compounds to promote OL differentiation. Prior to library screening, we first established the maximum non-toxic dose of each compound in the library. […] Therefore, we added each compound in the NIH clinical collection (NCC) library to OPCs at 10, 1, and 0.1 µM concentrations. Three days later, we assessed viability of the treated cells by measuring AlamarBlue fluorescence, a measure of cell viability (see “Methods” section). […] Appropriately, we established three sets of screening concentrations for library compounds: non-toxic compounds were tested at 10 and 2 µM, slightly toxic compounds (only toxic at 10 µM) were tested at 2 and 0.4 µM, and very toxic compounds were tested at 0.4 and 0.08 µM.
OPCs were expanded in vitro by seeding into PDL-coated tissue culture flasks at 1000–2000 cells/cm^2 in differentiation media supplemented with 10 ng/ml PDGF-AA. Proliferating OPCs were fed every 2–3 days and supplemented with 2–3× concentration of PDGF as needed to prevent OPC differentiation. After 6–7 days of proliferation, OPCs were harvested by trypsinization, plated into PDL-coated 96-well Falcon plates and centrifuged at 200×g to facilitate cell attachment, survival, and even distribution of cells. Expanded OPCs were seeded in differentiation media at 10,000 cells/well and incubated for 2 h at 37 °C, 10 % CO2 prior to addition of compounds. The NCC library was diluted and added to cells at 10, 1, and 0.1 µM; each concentration was tested in quadruplicate. As a positive control for the induction of toxicity, 5 ng/ml tunicamycin was added to 8 wells in each plate. Three days later, a 1:10 dilution of alamarBlue® (AB) was added to each well and cells were incubated 4 h at 37 °C, 10 % CO2. AB fluorescence was measured using a PerkinElmer Victor II fluorescence microplate reader (PerkinElmer, Waltham, MA) with 560 nm excitation/590 nm emission filters. […]

Take `COc1ccc(CC(C)NCC(O)c2ccc(O)c(NC=O)c2)cc1` (stereo not drawn) [Formoterol]: under “read-out: 0.1 µM (% DMSO)”, the viability at 0.1 µM is 99.3%. Further, the viability at 1 µM (read-out: 1 µM (% DMSO)) turned out to be 98%. Further, the viability at 10 µM (read-out: 10 µM (% DMSO)) is 92.5%.

For the origin of these results see article PMC5011342, “A high throughput drug screening assay to identify compounds that promote oligodendrocyte differentiation using acutely dissociated and purified oligodendrocyte precursor cells” (BMC Research Notes, 2016).
